Data from PubChem BioAssay AID504834 (National Center for Advancing Translational Sciences (NCATS), 2011).
Out of some 320,000 compounds screened, about 22,000 (6.9%) were called active. Inconclusive means that the source gave no clear call. Such entries were picked first, then a sample of the others. Calls follow the shape of the dose curve; as a rule, active = well fitted inhibition curve with a large enough effect; inconclusive = small, poorly fitted or top-dose-only effect, or another doubt; inactive = no such curve, though single readings can be large or run the other way. Potencies beside an inconclusive call are fits to weak or partial responses and may not hold up.

experiment: Primary qHTS for delayed death inhibitors of the malarial parasite plastid, 96 hour incubation; details: P. falciparum luciferase reporter growth; series mostly up to 28.7 µM
Procedure, shortened: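 Cell-based qHTS: luciferase-tagged P. falciparum in erythrocytes (2% hematocrit, 0.05% parasitemia final) incubated with compounds for 96 hours, 37 C, 5% CO2; luciferase detection reagent then added and luminescence measured.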
Potency is read from the fitted curve at half-maximal effect.

Structure (SMILES) | Potency
CCOc1ccc(CCNC(=O)C2CCCN(c3nn4c(=O)cc(C)nc4s3)C2)cc1 (stereo not drawn) | inconclusive: 18.5 µM [inhibitor, single point]
CCOC(=O)Nc1ccc2c(CN3CCC(C(=O)OC)CC3)cc(=O)oc2c1 | inactive
Nc1c(Br)cc(Br)c(N2CCCC2=O)c1Br | inconclusive: 14.7 µM [inhibitor, single point]
CC(C)(C)C(=O)O/N=C(\N)c1ccc(Oc2cc(Cl)cc(Cl)c2)c([N+](=O)[O-])c1 | inconclusive: 11.7 µM [inhibitor, single point]
OCC(O)CSc1nc(-c2ccccc2)nc2c1CCC2 (stereo not drawn) | inactive
Cc1csc(NC(=O)C2CC(=O)N(c3ccc4c(c3)OCCO4)C2)n1 (stereo not drawn) | inconclusive: 18.5 µM [inhibitor, single point]
Cc1ccc(S(=O)(=O)Nc2cccc(-c3ccc(N4CCCCCC4)nn3)c2)c(C)c1 | inconclusive: 0.828 µM [inhibitor, full curve, poor fit]
COCCNC(=O)c1ccc(Cl)c(S(=O)(=O)Nc2cccc(C)c2C)c1 | inactive
O=C(NCCc1ccc(Cl)cc1)C1CCCN1C(=O)Nc1ccccc1 (stereo not drawn) | inconclusive: 18.5 µM [inhibitor, single point]
CN(C)c1ccnc2sc(C(=O)NCc3ccccc3)c(N)c12 | inactive
Nc1nccnc1C(=O)OCC(=O)c1ccc[nH]1 | inactive
COc1cccc2c1OC[C@@H](CO)[C@H]2N(C)C(=O)Nc1ccc(Cl)cc1Cl | inactive
COc1ccccc1N1CCN(CC(=O)c2c[nH]c3ccccc23)CC1 | inconclusive: 10.4 µM [inhibitor, single point]
CN(CC(=O)NCc1ccccc1)Cc1ccc(Cl)cc1 | inactive
Oc1ccc(/C=N/N2CCOCC2)c(O)c1O | inactive
COc1ccc(NC(=O)c2cc(=O)c3ccccc3o2)cn1 | inconclusive: 11.7 µM [inhibitor, partial curve]
C=CCNC(=O)COC(=O)c1oc2ccccc2c1CSC1CCCCC1 | inconclusive: 18.5 µM [inhibitor, single point]
COc1ccc(Nc2nnc(SCC(=O)NC3CC3)s2)cc1 | inconclusive: 13.1 µM [inhibitor, partial curve, poor fit]
COc1ccc(-n2c(=O)[nH]cc(C(=O)Nc3ccccc3)c2=O)cc1 | inactive
Cc1ccccc1NC(=S)N(CCc1c(C)[nH]c2ccc(F)cc12)Cc1ccncc1 | inconclusive: 3.7 µM [inhibitor, full curve, poor fit]
COc1ccccc1NS(=O)(=O)c1cccc(NC(=O)Nc2cccc(Cl)c2)c1 | inconclusive: 18.5 µM [inhibitor, single point]
O=C(OCCOc1cccc(Cl)c1)c1ccc(F)c(S(=O)(=O)N2CCOCC2)c1 | inconclusive: 18.5 µM [inhibitor, single point]
Cc1nn(CC2CC2)c(=O)n1-c1ccc(F)cc1 | inactive

Two records picked at random from the list so far, as already listed:
Structure (SMILES) | Potency
Cc1csc(NC(=O)C2CC(=O)N(c3ccc4c(c3)OCCO4)C2)n1 (stereo not drawn) | inconclusive: 18.5 µM [inhibitor, single point]
Cc1ccccc1NC(=S)N(CCc1c(C)[nH]c2ccc(F)cc12)Cc1ccncc1 | inconclusive: 3.7 µM [inhibitor, full curve, poor fit]

Following part.

Structure (SMILES) | Potency
O=C(CNC(=O)c1cccs1)NCC(=O)OCc1ccccc1Br | inconclusive: 0.657 µM [inhibitor, partial curve]
O=C(Nc1nnc(-c2ccco2)o1)c1cccc2ccccc12 | inactive
Cc1cccc(C(=O)Nc2nnc(S(=O)(=O)N3CCC(C)CC3)s2)c1 | inconclusive: 9.28 µM [inhibitor, partial curve, poor fit]
CN1CCN(C(=O)c2cc(-c3cccc(Cl)c3)on2)CC1 | inactive
Cc1ccc(C2CC(c3ccccc3)n3ncnc3N2)cc1 (stereo not drawn) | active: 13.1 µM
CCOC(=O)C1=C(C)NC(=O)CC1c1cc(OC)c(OC)cc1Br (stereo not drawn) | inconclusive: 18.5 µM [inhibitor, single point]
Clc1ccc(Cl)c2sc(N3CCCC3)nc12 | inconclusive: 0.0738 µM [inhibitor, full curve, poor fit]
COc1ccc(N(C(=O)c2ccncc2)S(=O)(=O)c2ccc(Cl)cc2)cc1 | inconclusive: 4.65 µM [inhibitor, partial curve, poor fit]
COc1cc(OC)cc(C(=O)Nc2nc(CC(=O)NCc3ccccc3OC)cs2)c1 | inconclusive: 18.5 µM [inhibitor, single point]
CCCCCNC(=O)Cc1ccc(OC)cc1 | inconclusive: 3.7 µM [inhibitor, single point]
COCCNC(=O)CNC(=S)N(CCCN1CCOCC1)Cc1cccs1 | inactive
CC(=O)c1cccc(NC(=O)NC2CC(=O)N(c3ccc4c(c3)OCCO4)C2)c1 (stereo not drawn) | inactive
Cc1cc(N2CC(C)OC(C)C2)n2cc(-c3ccccc3)nc2n1 (stereo not drawn) | inconclusive: 11.7 µM [inhibitor, single point]
CCOc1ccc(S(=O)(=O)N2CCN(C(=O)c3cc(-c4ccccc4)nn3-c3ccccc3)CC2)cc1 | inconclusive: 1.85 µM [inhibitor, partial curve]
Oc1c(Br)cc(Br)cc1/C=N/NC(=S)N[C@H]1CC2C=CC1C2 (stereo partly drawn) | inconclusive: 8.28 µM [inhibitor, partial curve, poor fit]
O=C1C2C3C=CC(CC3)C2C(=O)N1c1ccccc1 (stereo not drawn) | inconclusive: 4.15 µM [inhibitor, single point]
Nc1ccccc1SCC(=O)N1CCc2ccccc21 | inconclusive: 13.1 µM [inhibitor, single point]
CCOc1ccccc1N(CC(=O)Nc1ccc2c(c1)OCCO2)S(C)(=O)=O | active: 4.15 µM
COCC(C)NS(=O)(=O)c1ccc(NC(=O)C(Cc2ccccc2)NC(N)=O)cc1 (stereo not drawn) | inactive
COc1ccc(C(=O)NC(=S)Nc2cccc3ncccc23)cc1[N+](=O)[O-] | inconclusive: 13.1 µM [inhibitor, single point]
COc1nc(OC)nc(N(C)CCO)n1 | inactive
O=C(NN=C1CCCCCC1)c1cn(-c2ccccc2)nc1-c1ccccc1 | inactive
Cc1ccc(NC(=O)C(c2ccccc2)c2ccccc2)nc1 | inconclusive: 16.5 µM [inhibitor, single point]
COc1ccc(NCc2nnc(SCC(=O)Nc3ccc(OC)cc3)n2C)cc1 | inactive
